The text below walks through data of the supplement of paper PMC11732987, “Enantioselective OTUD7B fragment discovery through chemoproteomics screening and high-throughput optimisation” (Communications Chemistry, 2025).

Sequences of proteins named here, by UniProt entry; tags and fusion partners are left off. A change or cut given only in a name is not applied to a line headed by its entry. Residues count along the entry.
UniProt Q9NY74: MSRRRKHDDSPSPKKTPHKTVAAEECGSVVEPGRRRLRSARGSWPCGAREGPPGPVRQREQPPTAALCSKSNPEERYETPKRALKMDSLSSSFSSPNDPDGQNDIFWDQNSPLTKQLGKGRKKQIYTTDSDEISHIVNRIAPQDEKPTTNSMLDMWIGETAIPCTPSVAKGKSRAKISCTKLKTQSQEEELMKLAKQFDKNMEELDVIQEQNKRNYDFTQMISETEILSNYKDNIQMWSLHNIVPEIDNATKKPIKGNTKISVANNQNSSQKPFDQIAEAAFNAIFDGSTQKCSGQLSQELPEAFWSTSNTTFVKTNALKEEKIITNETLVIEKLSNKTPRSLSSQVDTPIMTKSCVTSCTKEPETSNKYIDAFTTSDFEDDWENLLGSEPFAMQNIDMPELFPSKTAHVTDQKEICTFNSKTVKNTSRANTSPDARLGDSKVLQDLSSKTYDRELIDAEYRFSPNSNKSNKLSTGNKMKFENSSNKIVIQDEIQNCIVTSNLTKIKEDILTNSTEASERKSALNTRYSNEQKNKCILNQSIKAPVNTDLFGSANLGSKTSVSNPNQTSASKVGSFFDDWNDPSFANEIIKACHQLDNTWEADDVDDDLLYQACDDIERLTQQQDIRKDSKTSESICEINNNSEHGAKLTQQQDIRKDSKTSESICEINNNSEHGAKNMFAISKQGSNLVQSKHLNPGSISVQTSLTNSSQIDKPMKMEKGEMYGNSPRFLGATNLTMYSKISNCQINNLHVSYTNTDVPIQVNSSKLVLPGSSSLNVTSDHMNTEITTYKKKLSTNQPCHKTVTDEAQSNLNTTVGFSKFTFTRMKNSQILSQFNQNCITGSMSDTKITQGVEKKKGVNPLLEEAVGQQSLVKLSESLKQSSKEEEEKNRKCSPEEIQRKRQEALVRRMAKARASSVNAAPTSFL
UniProt Q92556, whole entry, looked up: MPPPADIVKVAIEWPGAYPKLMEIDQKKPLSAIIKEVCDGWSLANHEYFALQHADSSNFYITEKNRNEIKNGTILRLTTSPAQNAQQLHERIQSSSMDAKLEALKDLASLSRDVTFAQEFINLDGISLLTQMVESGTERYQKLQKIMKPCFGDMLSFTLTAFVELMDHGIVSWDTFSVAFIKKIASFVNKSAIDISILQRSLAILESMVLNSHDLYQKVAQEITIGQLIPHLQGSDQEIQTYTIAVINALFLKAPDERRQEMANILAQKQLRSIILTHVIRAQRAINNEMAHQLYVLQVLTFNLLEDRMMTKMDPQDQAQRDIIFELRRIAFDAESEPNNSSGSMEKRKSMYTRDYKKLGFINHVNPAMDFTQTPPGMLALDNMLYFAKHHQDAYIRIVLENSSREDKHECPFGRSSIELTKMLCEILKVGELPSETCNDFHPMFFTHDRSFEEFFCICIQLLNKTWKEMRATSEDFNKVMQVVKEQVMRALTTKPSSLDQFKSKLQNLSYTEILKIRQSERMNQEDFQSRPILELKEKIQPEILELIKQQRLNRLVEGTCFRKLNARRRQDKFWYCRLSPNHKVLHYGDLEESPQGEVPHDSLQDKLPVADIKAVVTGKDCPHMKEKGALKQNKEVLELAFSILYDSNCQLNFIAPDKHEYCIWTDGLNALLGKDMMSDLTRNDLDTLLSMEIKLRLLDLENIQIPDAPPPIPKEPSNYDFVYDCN
UniProt Q92979: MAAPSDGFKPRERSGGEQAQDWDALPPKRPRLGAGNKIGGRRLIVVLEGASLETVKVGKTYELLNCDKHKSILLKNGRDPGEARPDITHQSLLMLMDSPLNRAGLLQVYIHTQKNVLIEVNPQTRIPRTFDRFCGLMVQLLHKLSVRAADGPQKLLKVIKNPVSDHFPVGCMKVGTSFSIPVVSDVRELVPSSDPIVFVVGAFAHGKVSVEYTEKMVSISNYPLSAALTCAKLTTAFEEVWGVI
UniProt Q8TAV0: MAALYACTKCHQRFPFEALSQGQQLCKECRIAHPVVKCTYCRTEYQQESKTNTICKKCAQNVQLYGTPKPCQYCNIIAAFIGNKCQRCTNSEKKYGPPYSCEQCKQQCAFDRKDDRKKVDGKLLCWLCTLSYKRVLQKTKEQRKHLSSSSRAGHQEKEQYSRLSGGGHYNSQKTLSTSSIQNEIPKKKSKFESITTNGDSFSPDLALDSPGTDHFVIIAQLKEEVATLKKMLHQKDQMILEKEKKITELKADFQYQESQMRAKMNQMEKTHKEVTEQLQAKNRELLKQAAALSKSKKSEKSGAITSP
UniProt O00471: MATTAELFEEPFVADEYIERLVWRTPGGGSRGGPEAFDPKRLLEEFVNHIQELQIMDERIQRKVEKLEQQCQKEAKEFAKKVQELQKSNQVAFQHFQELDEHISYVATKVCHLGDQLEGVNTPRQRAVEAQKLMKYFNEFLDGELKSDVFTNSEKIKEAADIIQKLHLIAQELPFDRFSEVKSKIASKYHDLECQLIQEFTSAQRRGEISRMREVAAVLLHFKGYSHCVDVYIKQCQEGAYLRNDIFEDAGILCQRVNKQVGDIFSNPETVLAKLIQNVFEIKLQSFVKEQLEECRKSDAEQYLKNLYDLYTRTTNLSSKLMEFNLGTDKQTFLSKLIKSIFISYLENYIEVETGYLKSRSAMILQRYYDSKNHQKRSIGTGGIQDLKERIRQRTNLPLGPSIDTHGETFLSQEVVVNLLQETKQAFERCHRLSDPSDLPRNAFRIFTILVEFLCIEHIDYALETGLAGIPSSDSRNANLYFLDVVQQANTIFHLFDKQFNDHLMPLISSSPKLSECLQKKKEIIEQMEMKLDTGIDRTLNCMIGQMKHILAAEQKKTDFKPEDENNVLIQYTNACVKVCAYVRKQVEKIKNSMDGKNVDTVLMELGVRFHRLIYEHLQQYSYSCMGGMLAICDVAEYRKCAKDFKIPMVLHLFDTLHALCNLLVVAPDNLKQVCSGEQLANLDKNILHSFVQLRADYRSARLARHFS
UniProt Q17RN3: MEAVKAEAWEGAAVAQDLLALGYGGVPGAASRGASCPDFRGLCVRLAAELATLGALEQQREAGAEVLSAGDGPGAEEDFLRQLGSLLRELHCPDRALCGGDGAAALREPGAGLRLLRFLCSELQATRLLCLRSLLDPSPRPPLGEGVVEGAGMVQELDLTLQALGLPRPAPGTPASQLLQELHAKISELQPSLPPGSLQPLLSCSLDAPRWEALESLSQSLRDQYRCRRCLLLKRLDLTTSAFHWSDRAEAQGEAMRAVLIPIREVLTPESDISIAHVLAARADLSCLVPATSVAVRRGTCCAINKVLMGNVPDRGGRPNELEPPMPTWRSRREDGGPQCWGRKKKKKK
UniProt Q9NYP7: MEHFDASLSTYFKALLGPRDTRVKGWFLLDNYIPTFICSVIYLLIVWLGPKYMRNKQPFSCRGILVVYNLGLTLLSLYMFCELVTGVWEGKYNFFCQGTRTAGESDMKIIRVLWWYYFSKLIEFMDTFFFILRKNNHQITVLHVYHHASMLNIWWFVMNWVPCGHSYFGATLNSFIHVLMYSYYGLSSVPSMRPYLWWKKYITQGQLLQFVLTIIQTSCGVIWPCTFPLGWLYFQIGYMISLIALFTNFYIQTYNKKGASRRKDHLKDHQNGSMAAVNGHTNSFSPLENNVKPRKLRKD
UniProt Q96EK7: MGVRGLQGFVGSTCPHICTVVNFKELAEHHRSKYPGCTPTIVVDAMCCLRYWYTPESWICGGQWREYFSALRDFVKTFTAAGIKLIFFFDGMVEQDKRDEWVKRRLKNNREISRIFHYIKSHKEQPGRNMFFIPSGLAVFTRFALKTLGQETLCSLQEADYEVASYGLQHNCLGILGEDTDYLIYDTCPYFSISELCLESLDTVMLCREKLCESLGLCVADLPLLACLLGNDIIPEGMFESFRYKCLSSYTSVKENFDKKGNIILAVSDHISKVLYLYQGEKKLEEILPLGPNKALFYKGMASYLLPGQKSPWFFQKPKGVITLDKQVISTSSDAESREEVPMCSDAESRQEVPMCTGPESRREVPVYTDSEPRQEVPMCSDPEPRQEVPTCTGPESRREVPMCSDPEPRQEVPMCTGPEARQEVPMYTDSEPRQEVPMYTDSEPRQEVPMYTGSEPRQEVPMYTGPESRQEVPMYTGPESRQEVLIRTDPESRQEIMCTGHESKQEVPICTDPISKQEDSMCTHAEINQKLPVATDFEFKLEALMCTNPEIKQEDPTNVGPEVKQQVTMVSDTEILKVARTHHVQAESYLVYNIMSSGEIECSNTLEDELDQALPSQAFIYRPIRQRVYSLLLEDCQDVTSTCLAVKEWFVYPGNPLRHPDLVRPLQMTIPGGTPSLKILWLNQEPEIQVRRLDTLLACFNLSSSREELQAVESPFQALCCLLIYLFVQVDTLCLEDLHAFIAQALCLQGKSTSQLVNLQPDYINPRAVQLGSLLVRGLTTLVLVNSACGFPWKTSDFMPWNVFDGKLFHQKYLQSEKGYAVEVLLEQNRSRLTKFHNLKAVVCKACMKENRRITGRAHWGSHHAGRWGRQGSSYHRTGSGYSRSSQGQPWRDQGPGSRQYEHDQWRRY
UniProt Q5RKV6, whole entry, looked up: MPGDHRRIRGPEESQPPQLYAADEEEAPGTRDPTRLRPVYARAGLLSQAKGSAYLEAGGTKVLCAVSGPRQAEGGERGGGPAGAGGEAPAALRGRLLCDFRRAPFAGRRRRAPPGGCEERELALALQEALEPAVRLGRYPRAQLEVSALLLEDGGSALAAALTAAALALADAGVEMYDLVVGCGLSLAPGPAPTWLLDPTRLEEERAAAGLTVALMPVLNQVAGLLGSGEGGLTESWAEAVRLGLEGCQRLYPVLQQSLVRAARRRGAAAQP
UniProt P50402, 119-150: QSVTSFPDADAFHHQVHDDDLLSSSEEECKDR
UniProt Q15024, whole entry, looked up: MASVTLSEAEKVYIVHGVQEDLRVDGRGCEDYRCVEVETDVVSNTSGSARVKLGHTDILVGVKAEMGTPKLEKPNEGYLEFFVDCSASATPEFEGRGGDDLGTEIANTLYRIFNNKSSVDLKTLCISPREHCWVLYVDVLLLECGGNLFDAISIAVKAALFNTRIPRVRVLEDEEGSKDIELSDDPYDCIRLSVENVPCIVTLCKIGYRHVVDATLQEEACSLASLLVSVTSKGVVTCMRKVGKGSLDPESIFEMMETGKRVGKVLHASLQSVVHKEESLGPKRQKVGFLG
UniProt Q52LR7, 413-432: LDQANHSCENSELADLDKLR
UniProt Q96AY2: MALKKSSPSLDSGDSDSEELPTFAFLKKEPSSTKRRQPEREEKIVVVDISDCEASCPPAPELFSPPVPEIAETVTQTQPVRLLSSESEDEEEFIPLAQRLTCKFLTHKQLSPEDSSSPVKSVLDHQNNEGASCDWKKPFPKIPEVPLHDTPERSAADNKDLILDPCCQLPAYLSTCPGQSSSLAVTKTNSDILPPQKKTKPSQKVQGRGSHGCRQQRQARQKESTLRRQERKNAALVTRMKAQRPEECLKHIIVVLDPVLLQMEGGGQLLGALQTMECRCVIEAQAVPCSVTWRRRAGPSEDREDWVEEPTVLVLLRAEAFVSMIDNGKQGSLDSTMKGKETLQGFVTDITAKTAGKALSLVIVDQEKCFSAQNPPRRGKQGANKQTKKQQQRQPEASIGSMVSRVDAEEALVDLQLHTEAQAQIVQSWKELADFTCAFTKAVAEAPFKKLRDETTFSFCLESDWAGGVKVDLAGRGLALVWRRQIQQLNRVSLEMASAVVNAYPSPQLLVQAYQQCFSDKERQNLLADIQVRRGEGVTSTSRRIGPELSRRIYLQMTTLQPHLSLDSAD
UniProt Q86X53: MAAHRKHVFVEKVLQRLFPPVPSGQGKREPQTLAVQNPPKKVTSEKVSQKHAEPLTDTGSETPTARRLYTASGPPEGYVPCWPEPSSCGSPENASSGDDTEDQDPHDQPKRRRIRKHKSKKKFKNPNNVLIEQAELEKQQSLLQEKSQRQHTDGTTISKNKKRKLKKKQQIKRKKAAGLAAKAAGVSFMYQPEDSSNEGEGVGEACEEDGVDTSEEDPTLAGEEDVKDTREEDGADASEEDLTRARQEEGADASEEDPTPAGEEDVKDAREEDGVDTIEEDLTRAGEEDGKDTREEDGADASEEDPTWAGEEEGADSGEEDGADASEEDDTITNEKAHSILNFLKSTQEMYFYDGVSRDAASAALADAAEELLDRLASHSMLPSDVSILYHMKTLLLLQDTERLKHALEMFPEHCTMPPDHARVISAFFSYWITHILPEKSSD
UniProt Q9NPI8: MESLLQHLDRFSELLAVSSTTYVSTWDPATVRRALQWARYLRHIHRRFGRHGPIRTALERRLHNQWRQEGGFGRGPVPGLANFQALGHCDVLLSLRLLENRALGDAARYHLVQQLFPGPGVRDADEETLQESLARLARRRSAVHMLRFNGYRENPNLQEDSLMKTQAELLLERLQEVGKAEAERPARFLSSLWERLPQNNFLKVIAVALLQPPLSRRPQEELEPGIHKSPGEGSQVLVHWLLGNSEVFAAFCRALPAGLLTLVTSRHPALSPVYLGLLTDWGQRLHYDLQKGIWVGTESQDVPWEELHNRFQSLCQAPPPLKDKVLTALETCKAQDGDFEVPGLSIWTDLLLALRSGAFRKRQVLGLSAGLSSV

This is one part of the list. The data scatter; read single values as rough.

Compound in the first experiment: ClCC(=O)N[C@@H]1CCCc2ccccc12
The experiment can be described thus: log2 mean competition ratio of IA-DTB cysteine labelling (DMSO/compound) (log2 ratio); higher = stronger cysteine engagement by compound. The following applies: 50 µM; treatment time: 4 h; cell line lysate: HEK293T. Here is the method:
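IA-DTB competitive cysteine chemoproteomics in HEK293T RIPA lysate. Lysates were treated with compound 29 or 30 at 50 or 200 µM for 4 h, then IA-DTB (500 µM, 1 h), trypsin-digested, NeutrAvidin-enriched and analysed by diaPASEF. Competition ratio = intensity DMSO / intensity compound (n=4 treated, n=64 DMSO); binding: mean log2 CR ≥ 1 and p ≤ 0.05 plus QC filters. Target is the cysteine site.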
Consider EXD2 C227 (UniProt Q9NVH0), for which the “log2 mean competition ratio” value was 0.42.

Consider ETAA1 C637(C666) (UniProt Q9NY74), for which the “log2 mean competition ratio” value was -0.176.

As to ELP6 C218 (UniProt Q0PNE2), the “log2 mean competition ratio” value is 0.0376.

As for ELMO1 C561 (UniProt Q92556), the “log2 mean competition ratio” value was 0.317.

In the case of EMG1 C171 (UniProt Q92979), the “log2 mean competition ratio” value is -0.0796.

As for EXOC4 C619 (UniProt Q96A65), the “log2 mean competition ratio” value was 0.117.

Consider FAM76A C7 (UniProt Q8TAV0), for which the “log2 mean competition ratio” value was -0.276.

On to EXOC5 C675 (UniProt O00471), for which the “log2 mean competition ratio” value was -0.167.

Regarding FAN1 C649, the “log2 mean competition ratio” value stood at 0.239.

Consider ERAP1 C193 (UniProt Q9NZ08), for which the “log2 mean competition ratio” value was -0.239.

In the case of FAM83B C801 (UniProt Q5T0W9), the “log2 mean competition ratio” value was 0.29.

With FAM98C C340 (UniProt Q17RN3), the “log2 mean competition ratio” value is -0.000554.

Regarding ELOVL5 C61 (UniProt Q9NYP7), the “log2 mean competition ratio” value was found to be 0.0956.

As for ETFA C155 (UniProt P13804), the “log2 mean competition ratio” value was 0.216.

As for ERRFI1 C80, the “log2 mean competition ratio” value was 0.192.

In the case of ESPNL C523, the “log2 mean competition ratio” value was 0.187.

ELOA C610 (UniProt Q14241): the “log2 mean competition ratio” value worked out at 0.0837.

On to FAM120B C523 (UniProt Q96EK7), for which the “log2 mean competition ratio” value is -0.419.

In the case of EZH1 C696, the “log2 mean competition ratio” value is 0.389.

On to EXOSC6 C64 (UniProt Q5RKV6), for which the “log2 mean competition ratio” value is 0.0237.

For the target EMD C147 (UniProt P50402), the “log2 mean competition ratio” value is -0.508.

In the case of EYA2 C522, the “log2 mean competition ratio” value worked out at 0.00562.

Take FAM120B C499 (UniProt Q96EK7): the “log2 mean competition ratio” value is -0.0861.

For the target EXOSC7 C238 (UniProt Q15024), the “log2 mean competition ratio” value was 0.0219.

As for EPC2 C420 (UniProt Q52LR7), the “log2 mean competition ratio” value turned out to be 0.145.

Take FANCL C12 (UniProt Q9NW38): the “log2 mean competition ratio” value was -0.059.

With EME1 C248 (UniProt Q96AY2), the “log2 mean competition ratio” value is -0.249.

Regarding ENO1 C357, the “log2 mean competition ratio” value was -0.343.

As for ERCC6L C825 (UniProt Q2NKX8), the “log2 mean competition ratio” value was -0.507.

For the target ERICH1 C415 (UniProt Q86X53), the “log2 mean competition ratio” value amounted to 0.206.

Take ESPNL C983: the “log2 mean competition ratio” value was -0.41.

For the target EME1 C437 (UniProt Q96AY2), the “log2 mean competition ratio” value was -0.136.

For EXOSC10 C73 (UniProt Q01780), the “log2 mean competition ratio” value was 0.225.

For the target FAM83H C789 (UniProt Q6ZRV2), the “log2 mean competition ratio” value was 0.102.

As for ERI3 C245, the “log2 mean competition ratio” value was -0.0949.

The experiment is the same for the next values; noted with them: 200 µM; treatment time: 4 h; cell line lysate: HEK293T.
In the case of EXD2 C227 (UniProt Q9NVH0), the “log2 mean competition ratio” value was -0.0367.

With ETAA1 C637(C666) (UniProt Q9NY74), the “log2 mean competition ratio” value was 0.0186.

Consider ELP6 C218 (UniProt Q0PNE2), for which the “log2 mean competition ratio” value is -0.0283.

Turning to ELMO1 C561 (UniProt Q92556), the “log2 mean competition ratio” value turned out to be 0.345.

For EMG1 C171 (UniProt Q92979), the “log2 mean competition ratio” value worked out at 0.332.

Consider EXOC4 C619 (UniProt Q96A65), for which the “log2 mean competition ratio” value is -0.0529.

In the case of FAM76A C7 (UniProt Q8TAV0), the “log2 mean competition ratio” value is -0.195.

Take EXOC5 C675 (UniProt O00471): the “log2 mean competition ratio” value turned out to be 0.179.

As for FAN1 C649, the “log2 mean competition ratio” value was 0.184.

With FANCF C332 (UniProt Q9NPI8), the “log2 mean competition ratio” value was -0.176.

ERAP1 C193 (UniProt Q9NZ08): the “log2 mean competition ratio” value was found to be 0.0698.

Take FAM83B C801 (UniProt Q5T0W9): the “log2 mean competition ratio” value was 0.104.

Take FAM98C C340 (UniProt Q17RN3): the “log2 mean competition ratio” value is -0.00597.

Consider ELOVL5 C61 (UniProt Q9NYP7), for which the “log2 mean competition ratio” value stood at 0.479.

As for ETFA C155 (UniProt P13804), the “log2 mean competition ratio” value turned out to be 0.00974.

With ERRFI1 C80, the “log2 mean competition ratio” value was -0.0201.

Consider ESPNL C523, for which the “log2 mean competition ratio” value amounted to 0.172.

Regarding ELOA C610 (UniProt Q14241), the “log2 mean competition ratio” value is -0.252.

In the case of FAM120B C523 (UniProt Q96EK7), the “log2 mean competition ratio” value was 0.358.

Take EZH1 C696: the “log2 mean competition ratio” value was -0.141.

For EXOSC6 C64 (UniProt Q5RKV6), the “log2 mean competition ratio” value is -0.156.

As to EMD C147 (UniProt P50402), the “log2 mean competition ratio” value worked out at 0.0233.

Consider EYA2 C522, for which the “log2 mean competition ratio” value was found to be 0.23.

For FAM120B C499 (UniProt Q96EK7), the “log2 mean competition ratio” value is -0.0146.

In the case of EXOSC7 C238 (UniProt Q15024), the “log2 mean competition ratio” value is -0.244.

For EPC2 C420 (UniProt Q52LR7), the “log2 mean competition ratio” value is 0.272.

Turning to EPHA3 C760 (UniProt P29320), the “log2 mean competition ratio” value was found to be 0.0969.

For the target FANCL C12 (UniProt Q9NW38), the “log2 mean competition ratio” value is 0.329.

Turning to EME1 C248 (UniProt Q96AY2), the “log2 mean competition ratio” value was determined as 0.178.

For the target ENO1 C357, the “log2 mean competition ratio” value was found to be 0.226.

For ERCC6L C825 (UniProt Q2NKX8), the “log2 mean competition ratio” value was found to be 0.142.

As to ERICH1 C415 (UniProt Q86X53), the “log2 mean competition ratio” value was 0.272.

In the case of ESPNL C983, the “log2 mean competition ratio” value stood at 0.264.

Regarding EME1 C437 (UniProt Q96AY2), the “log2 mean competition ratio” value is -0.101.

Turning to EXOSC10 C73 (UniProt Q01780), the “log2 mean competition ratio” value was -0.112.

As to FAM83H C789 (UniProt Q6ZRV2), the “log2 mean competition ratio” value was -0.163.

Regarding ERI3 C245, the “log2 mean competition ratio” value worked out at 0.0143.
